Measurements from patent publication US9284543B2, “Neutral active soluble truncated PH20 polypeptides and uses thereof” (Halozyme, Inc., priority 2008, dated 2016).
Positions count from the first letter of the chain named. Names may count otherwise.

B1: N254A: PH20sHis N-glycosylation site mutant N254A, SEQ ID NO:205 (protein)
chain: MGVLKFKHIFFRSFVKSSGVSQIVFTFLLIPCCLTLNFRAPPVIPNVPFLWAWNAPSEFCLGKFDEPLDMSLFSFIGSPRINATGQGVTIFYVDRLGYYPYIDSITGVTVNGGIPQKISLQDHLDKAKKDITFYMPVDNLGMAVIDWEEWRPTWARNWKPKDVYKNRSIELVQQQNVQLSLTEATEKAKQEFEKAGKDFLVETIKLGKLLRPNHLWGYYLFPDCYNHHYKKPGYNGSCFNVEIKRNDDLSWLWAESTALYPSIYLNTQQSPVAATLYVRNRVREAIRVSKIPDAKSPLPVFAYTRIVFTDQVLKFLSQDELVYTFGETVALGASGIVIWGTLSIMRSMKSCLLLDNYMETILNPYIINVTLAAKMCSQVLCQEQGVCIRKNWNSSDYLHLNPDNFAIQLEKGGKFTVRGKPTLEDLEQFSEKFYCSCYSTLSCKEKADVKDTDAVDVCIADGVCIDAFLKPPMETEEPQIFYNASPSTLSHHHHHH
modifications: His tag; PH20sHis N254A
B2: N393A: PH20sHis N-glycosylation site mutant N393A, SEQ ID NO:189 (protein)
chain: B1 chain with A254N, N393A
modifications: His tag; PH20sHis-N393A (mut2)
B3: N82A/N166A/N254A: PH20sHis triple mutant, SEQ ID NO:209 (protein)
chain: B1 chain with N82A, N166A
modifications: His tag; PH20sHis N82A/N166A/N254A
B4: N82A/N254A: PH20sHis double mutant, SEQ ID NO:207 (protein)
chain: B1 chain with N82A
modifications: His tag; PH20sHis N82A/N254A
B5: HZ24-PH20sHis: his-tagged PH20 (SEQ ID NO:187), human PH20 clone with HexaHis tag after amino acid S490 (protein)
chain: B1 chain with A254N
modifications: His6 tag; PH20sHis
B6: N166A/N254A: PH20sHis double mutant, SEQ ID NO:208 (protein)
chain: B1 chain with N166A
modifications: His tag; PH20sHis N166A/N254A
B7: N368A: PH20sHis N-glycosylation site mutant N368A, SEQ ID NO:188 (protein)
chain: B1 chain with A254N, N368A
modifications: His tag; PH20sHis-N368A (mut1)
B8: N82A/N166A: PH20sHis double mutant, SEQ ID NO:206 (protein)
chain: B1 chain with N82A, N166A, A254N
modifications: His tag; PH20sHis N82A/N166A

Columns and labels:
CHO-S cells = assay: Secretion of N-glycan site specific deglycosylation mutants into the media (Western blot); assay type: cell-based, Chinese Hamster; conditions: for Secretion: expressed in CHO-S cells, secretion into the media
CHO cells = assay: Immunofluorescent analysis of CHO cells with an anti-PH20 antibody; assay type: cell-based, Chinese Hamster; conditions: 48 hours post-transfection

Molecule	Secretion (CHO-S cells)	further results
B1	YES	Secretion (CHO-S cells; listed as N254): no effect on secretion
B2	observed in the media and YES	Protein Expression (CHO-S cells; Western blot analysis): reduced protein expression; Localisation of PH20 in transfected CHO cells (CHO cells): accumulate inside the cells
B3	YES	
B4	YES	
B5	YES	
B6	YES	
B7		Localisation of PH20 in transfected CHO cells (CHO cells): accumulate inside the cells
B8	YES	
